The exact form of at least one protein or probe is not confirmed. Results from cells or extracts need not show a direct contact. For some of these results: No signal at the amounts used counts as a negative. For some of these results: At least one verdict rests on a figure or table, not on a statement of the authors.
Tests used:
CD44 on murine 4T1 cells [1] = target: CD44 on murine 4T1 cells (UniProt P15379); assay: flow cytometry and confocal colocalization with CD44 antibody; settings: overlap coefficient 0.76, 2'-fluoro pyrimidines (2'F-Py) in the entire sequence, Flow cytometry: 150 nM Alexa 647-sTN58, serum-free medium, 0.1 mg/mL yeast tRNA, 0.1 mg/mL salmon sperm DNA, 10 min RT, after 30-fold excess unlabeled SCR, protein on the cell surface, label: 5'-biotin (pull-down) or Alexa 647 (cell binding)
[2] = system: CD44 (predominantly standard isoform CD44s) on human TNBC cells (Homo sapiens (Cis-Pt-R, MDA-MB-231, BT-549 cells)); assay: flow cytometry cell binding; settings: MDA-MB-231 cells, 150 nM aptamer; 2'-fluoro pyrimidines (2'F-Py) in the entire sequence; Flow cytometry: 150 nM Alexa 647-sTN58, serum-free medium, 0.1 mg/mL yeast tRNA, 0.1 mg/mL salmon sperm DNA, 10 min RT, after 30-fold excess unlabeled SCR; protein on the cell surface; label: 5'-biotin (pull-down) or Alexa 647 (cell binding)
[3] = system: CD44 (predominantly standard isoform CD44s) on human TNBC cells (Homo sapiens (Cis-Pt-R, MDA-MB-231, BT-549 cells)); assay: confocal colocalization with CD44 antibody; settings: 2 uM aptamer, overlap coefficient 0.74, 2'-fluoro pyrimidines (2'F-Py) in the entire sequence, confocal: 2 uM in serum-free RPMI-1640, 5 min RT, protein on the cell surface, label: 5'-biotin (pull-down) or Alexa 647 (cell binding)
[4] = system: CD44 (predominantly standard isoform CD44s) on human TNBC cells (Homo sapiens (Cis-Pt-R, MDA-MB-231, BT-549 cells)); assay: aptamer pull-down and LC-MS/MS; settings: 400 nM biotin-sTN58, Cis-Pt-R membrane proteins precleared with biotin-SCR; 2'-fluoro pyrimidines (2'F-Py) in the entire sequence; pull-down: 400 nM in DPBS with protease inhibitors, 30 min RT; pH not stated; protein on the cell surface; label: 5'-biotin (pull-down) or Alexa 647 (cell binding)
[5] = system: CD44 (predominantly standard isoform CD44s) on human TNBC cells (Homo sapiens (Cis-Pt-R, MDA-MB-231, BT-549 cells)); assay: flow cytometry cell binding with siRNA knockdown; settings: 150 nM aptamer, binding falls with CD44 knockdown (Kd curve only in Fig. S2), 2'-fluoro pyrimidines (2'F-Py) in the entire sequence, Flow cytometry: 150 nM Alexa 647-sTN58, serum-free medium, 0.1 mg/mL yeast tRNA, 0.1 mg/mL salmon sperm DNA, 10 min RT, after 30-fold excess unlabeled SCR, protein on the cell surface, label: 5'-biotin (pull-down) or Alexa 647 (cell binding)
[6] = system: CD44 (predominantly standard isoform CD44s) on human TNBC cells (Homo sapiens (Cis-Pt-R, MDA-MB-231, BT-549 cells)); assay: confocal microscopy; settings: Cis-Pt-R cells, 2 uM aptamer, undetectable signal; 2'-fluoro pyrimidines (2'F-Py); confocal: 2 uM in serum-free RPMI-1640, 5 min RT; protein on the cell …; label: 5'-biotin (pull-down) or Alexa 647 (cell binding)
CD44 on murine 4T1 cells [7] = target: CD44 on murine 4T1 cells (UniProt P15379); assay: confocal microscopy; settings: 4T1 cells, 2 uM aptamer; 2'-fluoro pyrimidines (2'F-Py); confocal: 2 uM in serum-free RPMI-1640, 5 min RT; protein on the cell surface; label: 5'-biotin (pull-down) or Alexa 647 (cell binding)

Chains of the proteins cited; added tags and fusions are not shown. Where a name states a change or a piece, a line headed by the entry shows the natural chain unless it says otherwise. A line that says so, or that is headed by a name, gives the form on record, which may keep a tag or linker.
UniProt P15379: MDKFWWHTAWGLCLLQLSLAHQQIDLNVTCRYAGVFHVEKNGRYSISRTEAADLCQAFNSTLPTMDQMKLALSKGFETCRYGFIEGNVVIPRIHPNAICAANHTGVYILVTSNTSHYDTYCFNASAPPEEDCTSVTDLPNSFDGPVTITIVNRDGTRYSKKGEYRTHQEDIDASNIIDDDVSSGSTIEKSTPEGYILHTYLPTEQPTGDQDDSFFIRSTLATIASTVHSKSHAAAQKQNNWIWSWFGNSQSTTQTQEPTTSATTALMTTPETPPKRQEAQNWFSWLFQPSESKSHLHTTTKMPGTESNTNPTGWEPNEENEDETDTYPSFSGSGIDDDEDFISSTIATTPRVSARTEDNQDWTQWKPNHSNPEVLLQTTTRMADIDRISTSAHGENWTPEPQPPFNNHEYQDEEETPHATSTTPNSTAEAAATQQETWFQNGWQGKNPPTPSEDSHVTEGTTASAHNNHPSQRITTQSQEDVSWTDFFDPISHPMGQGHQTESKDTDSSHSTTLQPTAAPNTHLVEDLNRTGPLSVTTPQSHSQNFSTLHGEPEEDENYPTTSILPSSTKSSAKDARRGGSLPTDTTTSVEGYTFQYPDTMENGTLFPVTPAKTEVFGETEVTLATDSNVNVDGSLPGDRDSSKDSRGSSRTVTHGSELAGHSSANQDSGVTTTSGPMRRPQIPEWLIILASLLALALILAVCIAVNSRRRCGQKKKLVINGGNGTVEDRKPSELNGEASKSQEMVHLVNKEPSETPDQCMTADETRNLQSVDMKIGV
CD44 (predominantly standard isoform CD44s) on human TNBC cells (Homo sapiens (Cis-Pt-R, MDA-MB-231, BT-549 cells)), one chain, as listed by the source: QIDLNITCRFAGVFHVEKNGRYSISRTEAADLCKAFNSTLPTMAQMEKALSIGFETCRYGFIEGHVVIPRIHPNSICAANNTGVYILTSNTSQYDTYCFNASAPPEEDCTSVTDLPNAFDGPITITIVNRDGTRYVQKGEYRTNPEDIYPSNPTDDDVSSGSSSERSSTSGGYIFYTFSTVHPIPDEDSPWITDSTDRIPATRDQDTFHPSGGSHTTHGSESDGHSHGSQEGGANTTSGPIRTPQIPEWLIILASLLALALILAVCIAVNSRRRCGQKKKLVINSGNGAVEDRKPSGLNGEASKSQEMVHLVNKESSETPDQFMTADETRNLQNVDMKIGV

| Sequence | binding result (CD44 on murine 4T1 cells [1]) | binding result [2] | binding result [3] | binding result [4] | binding result [5] | binding result [6] | binding result (CD44 on murine 4T1 cells [7]) |
| --- | --- | --- | --- | --- | --- | --- | --- |
| GGACAUAUGAUGCAACGUUGUGGUCCCGUUUGCACUUUGUUUACG [sTN58] | binds | binds | binds | binds | binds | – | – |
| UUCGUACCGGGUAGGUUGGCUUGCACAUAGAACGUGUCA [SCR] | – | – | – | – | – | no binding | no binding |

Reference: paper PMC12059597
